Where a name gives a salt, the structure may show the parent alone.
System: BT-474 tumor-bearing nude mice

| SMILES | 177Lu-AMBA in Blood (% ID) (1 hr, + Tamoxifen/+ ES, control 0.14 ± 0.06) | 177Lu-AMBA in Kidneys (% ID) (1 hr, + Tamoxifen/+ ES, control 2.69 ± 0.28) | 177Lu-AMBA in Gastrointestinal (% ID) (1 hr, + Tamoxifen/+ ES, control 11.93 ± 0.43) | 177Lu-AMBA in Pancreas (% ID) (1 hr, + Tamoxifen/+ ES, control 12.50 ± 0.67) | 177Lu-AMBA in Bladder/urine (% ID) (1 hr, + Tamoxifen/+ ES, control 42.79 ± 1.58) | decrease in 177Lu-AMBA binding (tumor GRP receptor specific signal) over control tumor values (25 mg/kg, day 14, estradiol supplemented (0.6 mg/kg) BT-474 tumor bearing mice, 1 h, P<0.05) [%] |
| --- | --- | --- | --- | --- | --- | --- |
| CC/C(=C(\c1ccccc1)c1ccc(OCCN(C)C)cc1)c1ccccc1 [Tamoxifen] | 0.13 ± 0.05 | 2.30 ± 0.88 | 10.93 ± 3.19 | 9.81 ± 2.83 | 54.82 ± 6.54 | – |
| CC/C(=C(\c1ccccc1)c1ccc(OCCN(C)C)cc1)c1ccccc1 [Tamoxifen citrate, reference compound] | – | – | – | – | – | 68 |
